From the supplement of paper PMC10849652 come the findings set out here.

Protein sequences, listed by entry. Tags and fused reporters are not part of them. Lines headed by an entry give the natural chain unless they say otherwise; changes in a name come on top.
UniProt Q9NWR8: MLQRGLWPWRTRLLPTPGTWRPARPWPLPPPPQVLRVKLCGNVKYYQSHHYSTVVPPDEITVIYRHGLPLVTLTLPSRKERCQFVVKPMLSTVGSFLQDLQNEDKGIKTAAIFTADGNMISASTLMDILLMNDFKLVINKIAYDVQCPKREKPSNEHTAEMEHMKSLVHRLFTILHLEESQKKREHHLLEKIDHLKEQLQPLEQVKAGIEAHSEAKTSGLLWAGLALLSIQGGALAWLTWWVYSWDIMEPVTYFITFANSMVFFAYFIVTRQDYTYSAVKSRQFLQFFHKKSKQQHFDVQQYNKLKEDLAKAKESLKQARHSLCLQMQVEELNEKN
UniProt P23368: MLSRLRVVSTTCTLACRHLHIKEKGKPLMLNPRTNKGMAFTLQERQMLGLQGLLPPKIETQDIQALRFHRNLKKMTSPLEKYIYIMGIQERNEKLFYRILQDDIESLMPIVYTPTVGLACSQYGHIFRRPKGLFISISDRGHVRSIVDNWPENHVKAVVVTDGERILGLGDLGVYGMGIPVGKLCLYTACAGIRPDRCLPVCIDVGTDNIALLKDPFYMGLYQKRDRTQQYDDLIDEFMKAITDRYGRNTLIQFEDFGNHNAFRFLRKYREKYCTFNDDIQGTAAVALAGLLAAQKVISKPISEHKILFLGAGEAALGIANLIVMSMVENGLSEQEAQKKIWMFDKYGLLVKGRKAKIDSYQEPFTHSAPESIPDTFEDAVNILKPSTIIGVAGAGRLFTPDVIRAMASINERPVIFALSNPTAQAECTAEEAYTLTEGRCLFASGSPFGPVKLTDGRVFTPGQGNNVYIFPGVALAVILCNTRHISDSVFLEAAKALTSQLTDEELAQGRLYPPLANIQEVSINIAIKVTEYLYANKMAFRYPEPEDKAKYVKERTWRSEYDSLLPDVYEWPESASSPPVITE
UniProt Q14676: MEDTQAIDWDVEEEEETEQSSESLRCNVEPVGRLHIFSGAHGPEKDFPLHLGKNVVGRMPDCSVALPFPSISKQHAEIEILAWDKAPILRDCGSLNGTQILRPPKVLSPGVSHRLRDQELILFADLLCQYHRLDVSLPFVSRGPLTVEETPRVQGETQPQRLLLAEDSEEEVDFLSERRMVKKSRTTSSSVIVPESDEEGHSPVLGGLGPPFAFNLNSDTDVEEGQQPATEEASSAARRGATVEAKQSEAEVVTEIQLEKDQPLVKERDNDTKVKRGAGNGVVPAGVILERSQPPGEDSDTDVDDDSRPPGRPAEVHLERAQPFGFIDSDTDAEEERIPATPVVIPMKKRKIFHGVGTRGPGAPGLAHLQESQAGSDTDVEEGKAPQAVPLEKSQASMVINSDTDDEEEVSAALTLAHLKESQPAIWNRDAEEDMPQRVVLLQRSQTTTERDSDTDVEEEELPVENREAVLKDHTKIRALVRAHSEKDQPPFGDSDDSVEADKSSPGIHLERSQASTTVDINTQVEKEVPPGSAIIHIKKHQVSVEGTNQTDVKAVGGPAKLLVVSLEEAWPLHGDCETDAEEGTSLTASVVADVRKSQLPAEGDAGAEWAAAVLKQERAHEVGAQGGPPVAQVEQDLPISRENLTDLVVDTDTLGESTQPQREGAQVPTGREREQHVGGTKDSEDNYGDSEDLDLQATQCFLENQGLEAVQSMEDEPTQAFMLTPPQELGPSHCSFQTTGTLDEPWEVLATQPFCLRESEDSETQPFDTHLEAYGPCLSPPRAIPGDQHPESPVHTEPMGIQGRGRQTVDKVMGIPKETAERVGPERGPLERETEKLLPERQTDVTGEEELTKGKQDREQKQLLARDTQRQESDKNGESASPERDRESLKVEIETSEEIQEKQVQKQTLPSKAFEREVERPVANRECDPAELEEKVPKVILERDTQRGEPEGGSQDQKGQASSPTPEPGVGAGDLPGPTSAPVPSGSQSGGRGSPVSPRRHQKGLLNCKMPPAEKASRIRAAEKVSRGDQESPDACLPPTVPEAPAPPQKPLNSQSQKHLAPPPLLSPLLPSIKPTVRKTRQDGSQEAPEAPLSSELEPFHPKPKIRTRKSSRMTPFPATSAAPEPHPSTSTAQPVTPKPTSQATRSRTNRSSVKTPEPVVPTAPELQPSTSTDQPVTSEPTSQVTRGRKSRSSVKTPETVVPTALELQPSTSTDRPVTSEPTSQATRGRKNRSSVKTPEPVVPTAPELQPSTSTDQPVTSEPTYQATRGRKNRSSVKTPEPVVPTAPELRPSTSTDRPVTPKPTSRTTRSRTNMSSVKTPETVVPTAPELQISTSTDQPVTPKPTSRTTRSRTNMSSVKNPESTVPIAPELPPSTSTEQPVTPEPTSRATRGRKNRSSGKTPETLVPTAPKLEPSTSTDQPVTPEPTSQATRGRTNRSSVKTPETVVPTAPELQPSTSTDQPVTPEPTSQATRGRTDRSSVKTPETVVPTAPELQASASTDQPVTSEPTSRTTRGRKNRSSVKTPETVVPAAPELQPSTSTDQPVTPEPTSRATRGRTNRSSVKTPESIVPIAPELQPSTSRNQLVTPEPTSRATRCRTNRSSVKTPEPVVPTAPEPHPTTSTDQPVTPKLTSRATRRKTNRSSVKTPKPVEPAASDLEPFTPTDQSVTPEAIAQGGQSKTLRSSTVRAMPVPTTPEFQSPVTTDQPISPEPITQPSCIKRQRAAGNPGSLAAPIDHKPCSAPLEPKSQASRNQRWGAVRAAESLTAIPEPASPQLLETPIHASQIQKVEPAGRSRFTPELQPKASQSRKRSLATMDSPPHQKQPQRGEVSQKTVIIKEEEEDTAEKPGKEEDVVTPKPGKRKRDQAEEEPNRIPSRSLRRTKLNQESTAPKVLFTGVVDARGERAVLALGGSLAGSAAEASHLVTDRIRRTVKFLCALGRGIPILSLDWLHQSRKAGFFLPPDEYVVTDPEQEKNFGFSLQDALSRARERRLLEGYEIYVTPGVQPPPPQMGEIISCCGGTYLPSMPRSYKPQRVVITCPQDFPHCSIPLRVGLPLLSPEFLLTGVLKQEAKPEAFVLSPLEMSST
UniProt O15021: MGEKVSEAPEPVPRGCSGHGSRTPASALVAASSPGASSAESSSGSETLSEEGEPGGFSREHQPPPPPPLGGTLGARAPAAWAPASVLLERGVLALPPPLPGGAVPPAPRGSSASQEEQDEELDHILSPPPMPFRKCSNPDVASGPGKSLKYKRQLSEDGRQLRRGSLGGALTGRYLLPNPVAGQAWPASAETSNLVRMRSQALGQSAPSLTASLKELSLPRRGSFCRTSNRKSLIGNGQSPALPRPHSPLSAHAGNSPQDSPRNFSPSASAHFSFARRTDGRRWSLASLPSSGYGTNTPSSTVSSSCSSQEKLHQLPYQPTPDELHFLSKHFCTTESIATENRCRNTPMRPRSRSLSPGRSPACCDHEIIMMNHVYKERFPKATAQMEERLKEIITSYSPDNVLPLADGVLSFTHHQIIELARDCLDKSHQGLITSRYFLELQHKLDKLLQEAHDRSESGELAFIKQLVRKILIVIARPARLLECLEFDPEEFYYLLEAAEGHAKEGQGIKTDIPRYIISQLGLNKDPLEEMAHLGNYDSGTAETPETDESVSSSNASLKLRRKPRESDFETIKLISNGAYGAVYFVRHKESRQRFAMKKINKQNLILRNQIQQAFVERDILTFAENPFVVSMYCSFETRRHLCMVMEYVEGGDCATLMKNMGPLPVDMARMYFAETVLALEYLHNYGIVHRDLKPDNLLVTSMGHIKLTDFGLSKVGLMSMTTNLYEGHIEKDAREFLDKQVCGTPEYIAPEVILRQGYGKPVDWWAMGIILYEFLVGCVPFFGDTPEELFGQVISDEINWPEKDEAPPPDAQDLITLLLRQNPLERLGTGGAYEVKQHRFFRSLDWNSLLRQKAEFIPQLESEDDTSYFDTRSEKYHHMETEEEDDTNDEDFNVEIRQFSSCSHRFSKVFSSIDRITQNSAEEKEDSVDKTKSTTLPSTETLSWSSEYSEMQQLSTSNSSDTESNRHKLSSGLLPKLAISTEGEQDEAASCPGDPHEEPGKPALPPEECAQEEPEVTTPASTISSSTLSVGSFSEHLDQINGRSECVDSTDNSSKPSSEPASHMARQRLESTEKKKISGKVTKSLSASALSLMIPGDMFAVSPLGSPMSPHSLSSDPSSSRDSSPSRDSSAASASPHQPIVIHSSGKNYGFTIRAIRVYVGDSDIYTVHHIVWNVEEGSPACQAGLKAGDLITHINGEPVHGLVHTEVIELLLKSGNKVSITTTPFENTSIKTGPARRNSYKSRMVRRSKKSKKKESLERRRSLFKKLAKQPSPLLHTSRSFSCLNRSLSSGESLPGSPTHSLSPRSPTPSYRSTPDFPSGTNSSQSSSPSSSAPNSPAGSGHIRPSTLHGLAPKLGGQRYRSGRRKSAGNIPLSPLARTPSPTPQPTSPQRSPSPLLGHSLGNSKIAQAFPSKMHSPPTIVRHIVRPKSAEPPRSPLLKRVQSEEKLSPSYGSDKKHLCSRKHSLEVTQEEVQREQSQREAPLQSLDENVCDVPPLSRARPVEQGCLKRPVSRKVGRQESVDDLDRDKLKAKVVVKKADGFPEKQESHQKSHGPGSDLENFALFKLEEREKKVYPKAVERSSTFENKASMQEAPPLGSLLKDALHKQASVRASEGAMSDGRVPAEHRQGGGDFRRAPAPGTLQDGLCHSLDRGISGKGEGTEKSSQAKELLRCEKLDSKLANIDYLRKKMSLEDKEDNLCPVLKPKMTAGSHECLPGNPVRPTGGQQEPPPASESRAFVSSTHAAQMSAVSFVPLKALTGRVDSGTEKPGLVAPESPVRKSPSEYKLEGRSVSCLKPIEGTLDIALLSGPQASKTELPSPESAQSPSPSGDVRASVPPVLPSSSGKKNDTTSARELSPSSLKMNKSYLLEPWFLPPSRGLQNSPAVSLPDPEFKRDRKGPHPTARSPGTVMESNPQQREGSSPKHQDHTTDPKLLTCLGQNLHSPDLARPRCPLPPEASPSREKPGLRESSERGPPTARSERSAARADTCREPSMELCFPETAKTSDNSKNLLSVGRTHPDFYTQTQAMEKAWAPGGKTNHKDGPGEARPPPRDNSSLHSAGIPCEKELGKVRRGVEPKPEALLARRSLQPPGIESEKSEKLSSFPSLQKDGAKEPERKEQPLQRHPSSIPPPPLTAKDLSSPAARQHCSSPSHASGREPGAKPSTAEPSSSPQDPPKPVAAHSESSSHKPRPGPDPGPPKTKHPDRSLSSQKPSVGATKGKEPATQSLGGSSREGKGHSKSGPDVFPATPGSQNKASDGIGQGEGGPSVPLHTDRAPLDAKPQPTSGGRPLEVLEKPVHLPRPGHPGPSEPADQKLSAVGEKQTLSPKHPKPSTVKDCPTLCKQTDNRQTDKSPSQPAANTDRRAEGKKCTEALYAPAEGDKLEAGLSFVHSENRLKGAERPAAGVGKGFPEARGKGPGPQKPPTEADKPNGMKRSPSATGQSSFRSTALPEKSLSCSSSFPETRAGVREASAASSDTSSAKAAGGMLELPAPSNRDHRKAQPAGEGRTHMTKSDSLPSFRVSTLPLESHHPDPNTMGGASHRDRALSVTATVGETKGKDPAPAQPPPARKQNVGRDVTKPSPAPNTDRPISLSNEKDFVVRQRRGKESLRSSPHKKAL
UniProt Q9BUE0: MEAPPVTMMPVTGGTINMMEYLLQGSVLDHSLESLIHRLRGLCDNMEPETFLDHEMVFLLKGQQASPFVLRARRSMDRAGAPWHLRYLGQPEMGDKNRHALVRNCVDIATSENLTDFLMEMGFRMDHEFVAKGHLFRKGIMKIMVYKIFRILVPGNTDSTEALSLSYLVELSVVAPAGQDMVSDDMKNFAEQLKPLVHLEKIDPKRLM
UniProt Q9Y316: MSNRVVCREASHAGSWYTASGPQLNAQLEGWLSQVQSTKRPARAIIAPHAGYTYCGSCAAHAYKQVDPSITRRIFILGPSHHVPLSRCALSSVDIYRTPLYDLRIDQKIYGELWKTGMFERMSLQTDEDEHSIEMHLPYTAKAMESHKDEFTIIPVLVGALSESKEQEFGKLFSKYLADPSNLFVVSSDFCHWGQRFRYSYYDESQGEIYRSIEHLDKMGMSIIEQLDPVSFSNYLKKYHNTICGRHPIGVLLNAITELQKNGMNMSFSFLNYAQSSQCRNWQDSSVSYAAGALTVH
UniProt Q8NI22: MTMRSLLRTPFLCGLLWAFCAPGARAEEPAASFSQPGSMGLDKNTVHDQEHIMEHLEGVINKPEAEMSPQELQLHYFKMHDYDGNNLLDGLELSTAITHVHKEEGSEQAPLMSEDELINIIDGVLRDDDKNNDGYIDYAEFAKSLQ
UniProt Q9ULC4: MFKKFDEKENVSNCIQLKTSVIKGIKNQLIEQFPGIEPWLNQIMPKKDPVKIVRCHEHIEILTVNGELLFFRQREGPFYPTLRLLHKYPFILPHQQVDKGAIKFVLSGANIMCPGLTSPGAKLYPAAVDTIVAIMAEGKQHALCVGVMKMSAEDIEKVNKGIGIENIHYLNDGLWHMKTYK

Some of the results follow.

Compound in the first experiment: C1CN(CCC1(CC2=CC=C(C=C2)Cl)N)C3=NC=NC4=C3C=CN4
The experiment can be described thus: log2 fold change, soluble protein after heating vs DMSO (PISA); higher = thermal stabilisation; K562 cells, 10 uM, 30 min; active = over 0.2 and 3.5 SD of the protein, either way, in both replicates (recomputed). The procedure, abridged: (§1)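 K562 cells at 2×10^6 cells/mL were exposed to 10 μM compound for 30 min, then aliquots were heated for 3 min across 48°C-58°C, pooled, and extracted in PBS containing 0.5% NP-40 at 4°C. The supernatant after 21,000xg for 90 min was taken as soluble protein and measured by TMTpro 16plex LC-MS/MS with channel sums equalised. Thermal stability is reported relative to control samples, with values from duplicates. Fold changes are given on a log2 scale.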
For the target MGAT4B isoform 3 (UniProt Q9UQ53), the log2 fold change was inactive: 0.101.

Turning to MBNL1 (UniProt Q9NR56), the log2 fold change was inactive: 0.003.

MEF2D (UniProt Q14814): the log2 fold change is inactive: -0.018.

In the case of MFSD10 (UniProt Q14728), the log2 fold change was inactive: -0.027.

On to MCAM (UniProt P43121), for which the log2 fold change is inactive: 0.076.

As for METTL1 (UniProt Q9UBP6), the log2 fold change is inactive: 0.055.

In the case of MECP2 isoform 2 (UniProt P51608), the log2 fold change is inactive: -0.134.

For the target MCM2 (UniProt P49736), the log2 fold change was inactive: -0.007.

For the target MCM3 isoform 2 (UniProt P25205), the log2 fold change is inactive: -0.012.

On to METTL21A (UniProt Q8WXB1), for which the log2 fold change is inactive: 0.053.

Consider MDN1 (UniProt Q9NU22), for which the log2 fold change is inactive: 0.

Turning to MGAT1 (UniProt P26572), the log2 fold change was inactive: 0.012.

For METAP1D (UniProt Q6UB28), the log2 fold change is inactive: 0.033.

Regarding MED20 (UniProt Q9H944), the log2 fold change is inactive: 0.069.

METTL14 (UniProt Q9HCE5): the log2 fold change was inactive: 0.007.

As for MEAK7 (UniProt Q6P9B6), the log2 fold change is inactive: -0.017.

In the case of MCRIP1 (UniProt I3L4Q0), the log2 fold change was inactive: -0.022.

Turning to MCM5 (UniProt P33992), the log2 fold change is inactive: -0.011.

Regarding MCUB (UniProt Q9NWR8), the log2 fold change is inactive: 0.031.

Take MED22 (UniProt Q15528): the log2 fold change was inactive: 0.259.

As to ME2 (UniProt P23368), the log2 fold change was inactive: 0.081.

For MBOAT1 (UniProt Q6ZNC8), the log2 fold change is inactive: 0.044.

In the case of MDC1 (UniProt Q14676), the log2 fold change was inactive: 0.072.

Regarding MCMBP (UniProt Q9BTE3), the log2 fold change was inactive: -0.007.

As to MATR3 (UniProt P43243), the log2 fold change was inactive: -0.152.

For the target MFN1 (UniProt Q8IWA4), the log2 fold change is inactive: -0.039.

For the target MAST4 (UniProt O15021), the log2 fold change was inactive: -0.094.

Consider MED18 (UniProt Q9BUE0), for which the log2 fold change was inactive: -0.008.

Take MAT2A (UniProt P31153): the log2 fold change was inactive: 0.044.

For MAVS (UniProt Q7Z434), the log2 fold change is inactive: 0.014.

As to MEMO1 (UniProt Q9Y316), the log2 fold change is inactive: 0.044.

For MGST3 (UniProt O14880), the log2 fold change was inactive: 0.016.

For the target MED15 (UniProt Q96RN5), the log2 fold change was inactive: -0.027.

Turning to MCFD2 (UniProt Q8NI22), the log2 fold change is inactive: -0.234.

MARS2 (UniProt Q96GW9): the log2 fold change was inactive: 0.017.

Turning to MED14 (UniProt O60244), the log2 fold change is inactive: -0.02.

Regarding MFGE8 (UniProt Q08431), the log2 fold change is inactive: -0.066.

Take MCTS1 isoform 3 (UniProt Q9ULC4): the log2 fold change is inactive: 0.061.

As to MCM6 (UniProt Q14566), the log2 fold change is inactive: -0.002.

Compound in another experiment: C1COCCN1CCN2C3=CC=CC=C3N=C2NC(=O)C4=CC(=CC=C4)[N+](=O)[O-] [IRAK-1-4 Inhibitor I]
The experiment is described as above. The essentials: as §1
Turning to MGAT4B isoform 3 (UniProt Q9UQ53), the log2 fold change was inactive: 0.089.

MBNL1 (UniProt Q9NR56): the log2 fold change is inactive: 0.007.

As for MEF2D (UniProt Q14814), the log2 fold change was inactive: 0.

Turning to MFSD10 (UniProt Q14728), the log2 fold change was inactive: -0.031.

As for MCAM (UniProt P43121), the log2 fold change was inactive: -0.01.

Turning to METTL1 (UniProt Q9UBP6), the log2 fold change is inactive: 0.034.

MECP2 isoform 2 (UniProt P51608): the log2 fold change was inactive: -0.06.

For MCM2 (UniProt P49736), the log2 fold change was inactive: 0.018.

Regarding MCM3 isoform 2 (UniProt P25205), the log2 fold change is inactive: 0.007.

Turning to METTL21A (UniProt Q8WXB1), the log2 fold change was inactive: 0.027.

Take MDN1 (UniProt Q9NU22): the log2 fold change was inactive: -0.011.

Consider MGAT1 (UniProt P26572), for which the log2 fold change was inactive: -0.021.

Take METAP1D (UniProt Q6UB28): the log2 fold change was inactive: -0.122.

Turning to MED20 (UniProt Q9H944), the log2 fold change is inactive: 0.033.

METTL14 (UniProt Q9HCE5): the log2 fold change was inactive: 0.035.

In the case of MEAK7 (UniProt Q6P9B6), the log2 fold change was inactive: 0.015.

With MCRIP1 (UniProt I3L4Q0), the log2 fold change is inactive: -0.048.

On to MCM5 (UniProt P33992), for which the log2 fold change was inactive: 0.015.

As to MCUB (UniProt Q9NWR8), the log2 fold change was inactive: 0.186.

For MED22 (UniProt Q15528), the log2 fold change is inactive: 0.013.

Consider ME2 (UniProt P23368), for which the log2 fold change is inactive: 0.009.

Turning to MBOAT1 (UniProt Q6ZNC8), the log2 fold change is inactive: 0.016.

With MDC1 (UniProt Q14676), the log2 fold change was inactive: -0.012.

As for MCMBP (UniProt Q9BTE3), the log2 fold change was inactive: -0.007.

Turning to MATR3 (UniProt P43243), the log2 fold change was inactive: -0.133.

In the case of MFN1 (UniProt Q8IWA4), the log2 fold change was inactive: 0.057.

On to MAST4 (UniProt O15021), for which the log2 fold change is inactive: -0.025.

Regarding MED18 (UniProt Q9BUE0), the log2 fold change is inactive: -0.027.

Take MAT2A (UniProt P31153): the log2 fold change was inactive: 0.058.

With MAVS (UniProt Q7Z434), the log2 fold change was inactive: -0.011.

Regarding MEMO1 (UniProt Q9Y316), the log2 fold change was inactive: 0.071.

MGST3 (UniProt O14880): the log2 fold change is inactive: 0.115.

Take MED15 (UniProt Q96RN5): the log2 fold change was inactive: -0.015.

As to MCFD2 (UniProt Q8NI22), the log2 fold change is inactive: 0.084.

As to MARS2 (UniProt Q96GW9), the log2 fold change is inactive: 0.018.

As to MED14 (UniProt O60244), the log2 fold change was inactive: -0.058.

For MFGE8 (UniProt Q08431), the log2 fold change was inactive: -0.058.

Regarding MCTS1 isoform 3 (UniProt Q9ULC4), the log2 fold change was inactive: 0.022.

Regarding MCM6 (UniProt Q14566), the log2 fold change is inactive: 0.024.
